Patent publication US10034853B2, “PPAR α/γ dual agonist and its application” (Shanghai University of Traditional Chinese Medicine, priority 2013, dated 2018)
At least one compound was matched to its structure with a doubt left.

Tested on: 3T3-L1 cells
Assay: 3T3-L1 preadipocyte differentiation (oil red O staining)
Type: cell-based
Conditions: 10 μM rosiglitazone, with insulin and dexamethasone (FIG. 5B)
Method: 3T3-L1 fibroblast cell line is widely used for adipocyte differentiation models. […] For adipocyte differentiation, 3T3-L1 cells were seeded into 12-well plate to full confluence for 2 days and then incubated with completed medium containing 10 μg/mL human insulin (Sigma-Aldrich), 1 μM dexamethasone (Sigma-Aldrich) and the test compounds at 37° C. and 7.5% CO2. After 2 days of induction, the medium was replaced with a maintenance medium (completed medium including 10 μg/mL insulin and the test compounds) for additional 2 days (Day 0-Day 2). Thereafter, the medium was refreshed with fresh medium with the test compounds for 4 days (Day 2-Day 6). The test compounds dissolved in dimethylsulfoxide (DMSO) was diluted by the completed medium (final DMSO concentration, 0.1%) at indicated concentration. rosiglitazone was used as a positive compound. The 3T3-L1 cells were washed with PBS twice, fixed with 10% formalin at room temperature for 10 minutes and then stained with oil red O (Sigma-Aldrich, St. Louis, Mo.) at 37° C. for 30 minutes. The pictures were taken using an Olympus microscope (Tokyo, Japan).

Question: How did the 3T3-L1 adipocyte differentiation turn out when `CN(CCOc1ccc(CC2SC(=O)NC2=O)cc1)c1ccccn1` (stereo not shown) [rosiglitazone, reference compound] was run?
Answer: Its 3T3-L1 adipocyte differentiation is “induced to differentiate into adipocytes”.
